{"source": "PubChem BioAssay AID2685", "about": "(National Center for Advancing Translational Sciences (NCATS), 2010)", "note": "Hit rate of the full screen: of about 320,000 compounds, about 2,100 (0.66%) were called active. Inconclusive means that the source gave no clear call. Such entries were picked first, then a sample of the others. Calls come from the whole dose curve; as a rule, active = well fitted inhibition curve with a large enough effect in the signal ratio, with a control signal flat (not every such curve was filed as active); inconclusive = small, poorly fitted or top-dose-only effect, or effect the other way, or a change in a side signal; inactive = flat fitted curve, though single readings scatter; the % refers to the signal ratio. Where the call is inconclusive, the potency comes from a doubtful curve fit. % is set by controls: 0 for no effect and ±100 for the full control effect; potency is the fitted concentration of half-maximal effect."}
{"experiment": "qHTS Assay for Lipid Storage Modulators in Drosophila S3 Cells", "conditions": "BODIPY lipid droplet fluorescence, 18-24 h, cells fed with added oleic acid; lipid storage change, negative = inhibition: at 46.1 µM (top of the series) unless noted", "how_it_was_run": "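Laser-scanning cytometry quantifies lipid droplet accumulation (500–530 nm total intensity; droplet/cell object ratio) in oleic acid-fed (400 uM added) Drosophila S3 cells treated with a concentration series. 20 uM Triacsin C defined 100% inhibition.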"}
{"molecule": "CCOc1ccc(OCC(=O)NCCS(=O)(=O)N2CCN(c3ccc(F)cc3)CC2)cc1", "Potency": "inconclusive: 16.4 µM [activator, partial curve, poor fit]"}
{"molecule": "CCOC(=O)/C(N=Nc1ccc2c(c1)OCO2)=C(\\C)O", "lipid storage change, negative = inhibition": "inconclusive: -12.9%"}
{"molecule": "CC1=NNC(=O)C1Oc1ccccc1", "note": "(configuration not stated)", "lipid storage change, negative = inhibition": "inconclusive: 10.8%"}
{"molecule": "Cc1ccc(-c2nc(N)n(C(=O)c3cccnc3)n2)cc1", "Potency": "inconclusive: 0.231 µM [rising, full curve]"}
{"molecule": "CCOc1ccc(NC(=O)CC2C(=O)Nc3ccccc3N2C(=O)c2ccccc2)cc1", "note": "(configuration not stated)", "lipid storage change, negative = inhibition": "inconclusive: -1.92%"}
{"molecule": "Cn1c(=O)c2c(nc(SCC(=O)NC3CCCC3)n2C)n(C)c1=O", "Potency": "inconclusive: 0.116 µM [activator, partial curve, poor fit]"}
{"molecule": "Cc1ccc(S(=O)(=O)NCc2ccccc2)cc1C(=O)NCC(C)(C)N1CCOCC1", "lipid storage change, negative = inhibition": "inconclusive: -5.78%"}
{"molecule": "CCCCOc1ccc(NC(=O)CCSc2nccn2C)cc1", "lipid storage change, negative = inhibition": "inconclusive: 12.6%"}
{"molecule": "Cn1[nH]c(-c2ccccc2)c(/C=N/O)c1=O", "lipid storage change, negative = inhibition": "inconclusive: 1%"}
{"molecule": "CCOC(=O)CN1C(=O)C(Sc2n[nH]c(-c3cccc(C)c3)n2)CCc2ccccc21", "note": "(configuration not stated)", "lipid storage change, negative = inhibition": "inconclusive: -24.1%"}
{"molecule": "COc1cccc(OC)c1C(=O)NCCN1CCN(C(=O)c2c(OC)cccc2OC)CC1", "Potency": "inconclusive: 0.164 µM [falling, full curve, poor fit]"}
{"molecule": "CCOC(=O)CNC(=O)CSc1nccn1Cc1ccco1", "lipid storage change, negative = inhibition": "inconclusive: 4.48%"}
{"molecule": "CC1CN(c2ccc([N+](=O)[O-])c(NCCOc3ccc(Cl)cc3)c2)CC(C)N1", "note": "(configuration not stated)", "Potency": "inconclusive: 29.1 µM [activator, single point]"}
{"molecule": "C=CCn1c(C)c(C(=O)OCC)c2cc(O)c3ccccc3c21", "lipid storage change, negative = inhibition": "inconclusive: 9.48%"}
{"molecule": "CNC(=O)C1(C)C=CCN1C(=O)c1ccccc1", "note": "(configuration not stated)", "lipid storage change, negative = inhibition": "inconclusive: -6.41%"}
{"molecule": "O=C(CNC(=O)c1ccc(Br)cc1)NC1=NCCS1", "Potency": "inconclusive: 0.146 µM [falling, partial curve, poor fit]"}
{"molecule": "CCCN1C=CC(=C/C=C(\\C#N)C(=O)OCC)C=C1", "Potency": "inconclusive: 29.1 µM [cytotoxic, single point]"}
{"molecule": "CCc1nnc(NC(=O)CSc2nnc(CNc3ccc(Cl)cc3)o2)s1", "lipid storage change, negative = inhibition": "inconclusive: 12.8%"}
{"molecule": "COC(=O)Cn1cnc2c(C#N)c3n(c2c1=O)CCCC3", "lipid storage change, negative = inhibition": "inconclusive: 63%"}
{"molecule": "COC(=O)c1ccc(S(=O)(=O)N2CCC(C(N)=O)CC2)n1C", "Potency": "inconclusive: 0.0058 µM [falling, full curve, poor fit]"}
{"molecule": "COc1ccc(Cn2c(=O)[nH]c3cc(C(=O)NC4CCN(Cc5ccccc5)CC4)ccc32)cc1", "lipid storage change, negative = inhibition": "inconclusive: -27.1%"}
{"molecule": "O=C(Oc1cccc(C(=S)N2CCOCC2)c1)c1ccc([N+](=O)[O-])cc1[N+](=O)[O-]", "lipid storage change, negative = inhibition": "inconclusive: -25.4%"}
{"molecule": "CC1Cc2ccccc2N1C(=O)COC(=O)CNC(=O)c1ccc(Br)o1", "note": "(configuration not stated)", "Potency": "inconclusive: 1.3 µM [activator, full curve]"}
{"molecule": "COc1cc2c(cc1OC)C(COc1ccccc1OC)N(C(=O)C(C)C)CC2", "note": "(configuration not stated)", "Potency": "inconclusive: 20.6 µM [falling, single point]"}
{"molecule": "Cc1ccc(C(=O)Nc2ccc(S(=O)(=O)Nc3cnc4ccccc4n3)cc2)cc1", "Potency": "inconclusive: 20.6 µM [falling, single point]"}
{"molecule": "Cc1nnc(NC(=O)C2CCCN2C(=O)Nc2ccccc2)s1", "note": "(configuration not stated)", "Potency": "inconclusive: 6.51 µM [activator, partial curve, poor fit]"}
{"molecule": "CC(=O)Nc1ccc(NC(=O)C(C)OC(=O)/C=C/c2cn(-c3ccccc3)nc2-c2cccnc2)cc1", "note": "(configuration not stated)", "Potency": "inconclusive: 29.1 µM [falling, single point]"}
{"molecule": "CS(=O)(=O)c1ccc(Cl)c(C(=O)Nc2ccc3nc(N4CCOCC4)sc3c2)c1", "lipid storage change, negative = inhibition": "inconclusive: -58.9%"}
{"molecule": "CC(NCc1ccc(-c2ccccc2)cc1)C(O)c1ccccc1", "note": "(configuration not stated)", "Potency": "inconclusive: 29.1 µM [falling, single point]"}
{"molecule": "COc1cc2c(cc1NC(=O)c1ccccc1F)CCCC2", "Potency": "inconclusive: 2.59 µM [activator, partial curve]"}
{"molecule": "CCN=C1S/C(=C\\c2cn(C(C)=O)nc2-c2ccccc2)C(=O)N1CC", "lipid storage change, negative = inhibition": "inconclusive: -13.8%"}
{"molecule": "CC(=O)c1ccc(OCCCC(=O)OCC(=O)N2CCN(c3ccccc3)CC2)cc1", "lipid storage change, negative = inhibition": "inconclusive: 24.5%"}
{"molecule": "COc1ccc(OCC(=O)NS(=O)(=O)c2ccc(Cl)cc2)cc1", "lipid storage change, negative = inhibition": "inconclusive: -23.2%"}
{"molecule": "COC(=O)c1cc(COC(=O)c2ccc(OC)c(S(=O)(=O)N3CCCC3)c2)oc1C", "lipid storage change, negative = inhibition": "inconclusive: 143%"}
{"molecule": "O=C(Nc1ccc2c(c1)C(=O)NC2=O)c1cccc(C(F)(F)F)c1", "lipid storage change, negative = inhibition": "inconclusive: 27.2%"}
{"molecule": "CN(C)C(=S)NC(=O)C12CC3(C)CC(C)(CC(C)(C3)C1)C2", "Potency": "inconclusive: 2.06 µM [activator, single point]"}
{"molecule": "COc1ccc(N2C(=O)CSC2c2ccc([N+](=O)[O-])cc2)cc1", "note": "(configuration not stated)", "lipid storage change, negative = inhibition": "inconclusive: 16.6%"}
{"molecule": "Cc1ccc(NC(=O)C2CCN(S(=O)(=O)c3ccc(F)cc3)CC2)cc1", "Potency": "inconclusive: 29.1 µM [activator, single point]"}
{"molecule": "O=S(=O)(Nc1cccc(-c2ccc(N3CCCCCC3)nn2)c1)c1ccc(F)cc1", "lipid storage change, negative = inhibition": "inconclusive: -6.43%"}
{"molecule": "COc1ccc(C)cc1N(C(=O)CNC(=O)c1ccco1)C(C(=O)NCC1CCCO1)c1ccccc1", "note": "(configuration not stated)", "Potency": "inconclusive: 7.31 µM [falling, single point]"}
{"molecule": "CCOC(=O)c1cnc(SC)nc1Oc1cccc(NS(=O)(=O)c2ccc(C)cc2)c1", "lipid storage change, negative = inhibition": "inconclusive: 26.3%"}
{"molecule": "CCCCNC(=O)c1onc(CCl)c1C(=O)OC", "lipid storage change, negative = inhibition": "inconclusive: 4.66%"}
{"molecule": "CC1(C)CC(=O)C2=C(C1)OC(N)=C(C#N)C2c1ccccc1[N+](=O)[O-]", "note": "(configuration not stated)", "lipid storage change, negative = inhibition": "inconclusive: -29.8%"}
{"molecule": "CCOC(=O)c1cc(C(=O)OCC)c(=O)[nH]c1N1CCCC1", "lipid storage change, negative = inhibition": "inconclusive: -48.5%"}
{"molecule": "O=C(Cn1cnc2ccccc2c1=O)c1cccs1", "lipid storage change, negative = inhibition": "inconclusive: 1.08%"}
{"molecule": "Cc1ccc(C)c(N2CCN(C(=O)Nc3ccc4c(c3)N(C)C(=O)CS4)CC2)c1", "lipid storage change, negative = inhibition": "inactive: 6.34%"}
{"molecule": "CC1CCCC(C)N1C(=O)COC(=O)c1c[nH]c2ccccc12", "note": "(configuration not stated)", "lipid storage change, negative = inhibition": "inconclusive: -6.27%"}
{"molecule": "CCN(Cc1ccncc1)C(=O)c1ccco1", "lipid storage change, negative = inhibition": "inconclusive: 37.7%"}
{"molecule": "CCOc1ccc(C(=O)Nc2cccc(-n3cnnn3)c2)cc1OCC", "lipid storage change, negative = inhibition": "inconclusive: -91.3%"}
{"molecule": "CCOC(=O)c1ccc(N/N=C/c2cc(Br)cc([N+](=O)[O-])c2O)cc1", "Potency": "inconclusive: 16.4 µM [falling, single point]"}
{"molecule": "CC(=O)c1cccc(NC=C2C(=O)OC3(CCCCC3)OC2=O)c1", "lipid storage change, negative = inhibition": "inconclusive: -1.17%"}
{"molecule": "COc1ccc(NC(=O)CN(C)C(=O)CN2C(=O)NC3(CCCC3)C2=O)cc1", "lipid storage change, negative = inhibition": "inconclusive"}
{"molecule": "O=C(Nc1nc2ccsc2c(=O)s1)C1CCC1", "Potency": "inconclusive: 29.1 µM [activator, single point]"}
{"molecule": "CC1=C(C(=O)OC(C)C)C(c2ccccc2)NC(=O)N1C", "note": "(configuration not stated)", "outcome": "inactive [at 46.1 µM]"}
{"molecule": "Cc1ccc(C)c(C(=O)COc2ccc(C)nc2[N+](=O)[O-])c1", "Potency": "inconclusive: 14.6 µM [activator, single point]"}
{"molecule": "O=C(NC(=S)NCc1ccccc1)c1cccc([N+](=O)[O-])c1", "Potency": "inconclusive: 29.1 µM [falling, single point]"}
{"molecule": "CC(=O)c1sc2nc(C)c3c(c2c1N)CCCC3", "Potency": "inconclusive: 2.31 µM [activator, single point]"}
{"molecule": "COc1ccccc1C(=O)Nc1ccc(NC(=O)c2ccco2)cn1", "lipid storage change, negative = inhibition": "inconclusive: 36%"}
{"molecule": "O=C(O)c1ccccc1OC(=O)C12CC3CC(CC(C3)C1)C2", "lipid storage change, negative = inhibition": "inconclusive: 0.622%"}
{"molecule": "Cc1ccc(NC(=O)c2cccnc2C(=O)O)nc1", "lipid storage change, negative = inhibition": "inconclusive: 56.7%"}
{"molecule": "CCOC(CNC(=O)c1ccc2c(c1)ncn2-c1ccccc1OC)OCC", "lipid storage change, negative = inhibition": "inconclusive: 5.61%"}
{"molecule": "Cc1cccc(-c2noc(CNC(=O)c3ccc4c(c3)OCO4)n2)c1", "lipid storage change, negative = inhibition": "inconclusive: 93.7%"}
{"molecule": "COc1ccccc1C(=O)Nc1ccon1", "Potency": "inconclusive: 6.51 µM [activator, single point]"}
{"molecule": "O=C(CCCCCN1C(=O)c2ccccc2C1=O)NCc1ccccn1", "lipid storage change, negative = inhibition": "inconclusive: -8.25%"}
{"molecule": "COc1nc(NCC(C)C)nc(Oc2ccc(OCc3ccccc3)nn2)n1", "Potency": "inconclusive: 2.59 µM [activator, single point]"}
{"molecule": "O=C(COC(=O)Cc1ccccc1[N+](=O)[O-])Nc1nnc(-c2ccccc2)o1", "lipid storage change, negative = inhibition": "inconclusive"}
{"molecule": "N#CC(C(=O)Nc1cccc(Cl)c1)=C1Nc2ccccc2N1", "Potency": "inconclusive: 4.61 µM [activator, partial curve]"}
{"molecule": "COc1ccc(C/C(C)=N/NC(=S)Nc2ccccc2F)cc1", "lipid storage change, negative = inhibition": "inconclusive: 86.2%"}
{"molecule": "CCC(C)[C@H](NC(=O)Nc1ccc(Oc2ccccc2)cc1)C(=O)O", "note": "(some centres not stated)", "lipid storage change, negative = inhibition": "inconclusive: 21.6%"}
{"molecule": "CC1(C)NC(=O)N(CCCCOc2cccc(C(F)(F)F)c2)C1=O", "lipid storage change, negative = inhibition": "inconclusive: 33.7%"}
{"molecule": "O=C(Cc1ccc(Br)cc1)N1CCN(c2ccc(F)cc2)CC1", "lipid storage change, negative = inhibition": "inconclusive: 0.187%"}
{"molecule": "O=C(COC(=O)/C=C/c1ccccc1)NNC(=O)c1ccccc1F", "lipid storage change, negative = inhibition": "inconclusive"}
{"molecule": "CCOC(=O)CSc1c(-c2cccs2)[nH]c2ccccc12", "Potency": "inconclusive: 29.1 µM [falling, single point]"}
{"molecule": "Cc1ccc(NC(=S)NN(C)c2cc(C)nc(C)n2)cc1", "lipid storage change, negative = inhibition": "inconclusive: 15.4%"}
{"molecule": "Cc1[nH]nc2ncc(C(=O)c3ccccc3O)cc12", "lipid storage change, negative = inhibition": "inconclusive: 1.03%"}
{"molecule": "C=CCn1c(SCC(=O)NCc2ccccc2)nnc1C1CCCCC1", "lipid storage change, negative = inhibition": "inconclusive: 32.9%"}
{"molecule": "CCCCCCCNC1=CC(=O)CC(c2ccccc2)C1", "note": "(configuration not stated)", "Potency": "inconclusive: 29.1 µM [falling, single point]"}
